According to EP2255813A1, “Derivatives of ursodeoxycholic acid for the treatment of diarrhoea” (The Royal College of Surgeons in Ireland, priority 2009, dated 2010):
For at least one compound, name, drawing or mass did not settle the structure.

How the values were obtained:
Na^+/K^+ ATPase = target: T1, Na^+/K^+ ATPase (Homo sapiens, UniProt P05023); experiment: Na^+/K^+ ATPase activity as ouabain-sensitive current in apically permeabilised monolayers; format: cell-based; details: 1 mM, amphotericin B permeabilised monolayers, n=6, p<0.001 (Figure 6)
T1 construct: Monolayers were apically permeabilised using amphotericin B (10 mM); endogenous in cells

T84 cells = experiment: Cl^- secretion measured as short-circuit current (Isc) across T84 cell monolayers in Ussing chambers; format: cell-based; details: for Isc responses to CCh: 20 min pretreatment; for responses to CCh: 20 min pretreatment (Figure 4)
Protocol: Materials and Methods: Cultured T84 epithelial cells were employed as a model of the colonic epithelium. T84 cells were grown as monolayers on filter supports. When grown in this way T84 cells retain many of the characteristics of native intestinal epithelium and are widely considered as being among the best reductionist models for analysing intestinal epithelial secretory responses. T84 cell monolayers were mounted in Ussing chambers, and voltage-clamped to zero potential difference. Under these conditions, transepithelial ion transport can be measured as changes in short-circuit current (Isc) and such changes in Isc across T84 cells have been established as wholly due to Cl^- ion secretion. […]

SMILES: C[C@H](CCC(=O)O)[C@H]1CC[C@H]2[C@@H]3[C@@H](O)C[C@@H]4C[C@H](O)CC[C@]4(C)[C@H]3CC[C@]12C [UDCA, ursodeoxycholic acid]
- Na^+/K^+ ATPase activity (Na^+/K^+ ATPase): attenuate sodium pump activity to a similar degree as its effects on transepithelial Cl^- secretion
- Isc responses to CCh (T84 cells; 50 µM - 1 mM, maximal Cl^- secretory responses, T84 cells (Figure 3B)): significantly reduce responses to CCh in a concentration-dependent manner
- secretory responses to CCh (T84 cells; 100µM and 500µM for 15 minutes before CCh (100µM) (Figure 7)): inhibited secretory responses to both CCh and FSK
- secretory responses to FSK (T84 cells; 100µM and 500µM for 15 minutes before FSK (10µM) (Figure 7)): inhibited secretory responses to both CCh and FSK
- Isc responses to CCh (T84 cells; 500 µM, T84 cells (Figure 3A)): practically abolished the ability of the cells to evoke responses to CCh
- basal Isc (T84 cells; UDCA 500 µM alone, T84 cell monolayers): did not alter basal Isc

SMILES: C[C@H](CCC(=O)O)[C@H]1CC[C@H]2[C@@H]3CC[C@@H]4C[C@H](O)CC[C@]4(C)[C@H]3CC[C@]12C [LCA, lithocholic acid]
- basal Cl^- secretion (T84 cells; LCA alone, data not shown): without effect on basal Cl^- secretion
- responses to CCh (T84 cells; higher concentrations > 500 µM): antisecretory
- responses to CCh (T84 cells; low concentrations 50 - 200 µM): significantly potentiated subsequent responses to CCh
